Assay results published in US5130139A, “Reduction or prevention of skin irritation by drugs” (Alza Corporation, priority 1990, dated 1992).

Experiment: in vitro
Settings: human, skin fibroblasts, ID50 (M)
Description: The following examples are offered to illustrate the practice of the present invention. It is important to note that this invention is not limited to any particular transdermal device or other form of transdermal delivery, as are commonly known in the art. Nor is this invention limited to a particular formulation. Therefore, the embodiments described herein are merely illustrative and are not intended to limit the scope of the invention in any manner.
Four beta-adrenergic blocking drugs (propranolol, labetalol, pindolol and timolol) were tested for their uptake and their toxicity in human skin fibroblasts.
To estimate the toxicity of the tested compounds, the general procedure of the MTT assay (Swisher et al., Models Dermatol., Maibach and Lowe (eds.), Basel, Karger, vol. 4, pp 131-137, 1989) was used. Cell cultures of fibroblasts were incubated for 16 hours in medium containing a range of concentrations of the drug being tested. […] Absorbance of this solution was measured at 540 nm against a reference wavelength of 660 nm. Results were then expressed as percent of control cultures incubated in the same conditions without drug or agent. […]
The action of various ionophores and amphiphilic amines on the cytotoxicity of propranolol and chloroquine was determined, following the procedures of Example 1. […]

`CN1CCC[C@@H]1CCO[C@](C)(c1ccccc1)c1ccc(Cl)cc1` [Clemastine] showed a CC50 at 16 h (Drug + Monensin) of 2.3e-05 M and a CC50 at 16 h (Drug Alone) of 1.9e-05 M.
